According to patent publication US20240261315A1 (Omikron Italia S.r.l., priority 2021, published 2024):
Some of these results come from one statement about several compounds together.

Tested on: glial fibrillary acidic protein GFAP
Assay: Glial activation, GFAP immunohistochemistry score in db/db mice
Type: in vivo
Settings: scoring system from 1 to 5, all mice of the group
Text: The db/db mice have a mutation in the leptin receptor gene and they are an animal model of retinal neurodegeneration. Such model is useful to mime the pathophysiological events which are found in neurodegenerative pathologies such as glaucoma.
[…] Citicoline 0.5% (Cit.) in 10% lactose solution administered with nasogastric tube (SNG); • 2. […] 10% lactose solution (Placebo) administered with SNG; • 5. Healthy, non-diabetic control (Control).
Through immunohistochemical assays, neurodegeneration histological markers were researched (glial activation and apoptosis):
(iii) The glial activation was evaluated by means of confocal laser scanning microscopy by using antibodies directed to the glial fibrillary acidic protein GFAP (anti-GFAP of rabbit). To evaluate the level of glial activation a scoring system (from 1 to 5) was used based upon the extension of GFAP (glial fibrillary acidic protein) colouring.
The sections were fixed in methanol (−20° C.) for 2 minutes, followed by three washing with saline phosphate buffer PBS (5 minutes each one). […] Once the mounting support has dried up, comparative digital images of the samples were recorded with a confocal laser scanning microscope Fluoview FV 1000 Olympus (Olympus, Shinjuku, Tokyo, Japan) by using identical brightness and contrast settings.

| SMILES | GFAP score |
| --- | --- |
| C[N+](C)(C)CCOP(=O)([O-])OP(=O)(O)OC[C@H]1O[C@@H](n2ccc(N)nc2=O)C(O)C1O (some centres unmarked) [Citicoline, citidin-5′-difosfocholine] | ≤ 3 |
| NC(=O)c1cccnc1 [Nicotinamide] | ≤ 3 |
